Experimental data taken from the supplement of paper PMC10849652.
The list shows a part of the results.

Protein sequences, listed by entry. Tags and fused reporters are not part of them. Lines headed by an entry give the natural chain unless they say otherwise; changes in a name come on top.
UniProt P11171, whole entry, looked up: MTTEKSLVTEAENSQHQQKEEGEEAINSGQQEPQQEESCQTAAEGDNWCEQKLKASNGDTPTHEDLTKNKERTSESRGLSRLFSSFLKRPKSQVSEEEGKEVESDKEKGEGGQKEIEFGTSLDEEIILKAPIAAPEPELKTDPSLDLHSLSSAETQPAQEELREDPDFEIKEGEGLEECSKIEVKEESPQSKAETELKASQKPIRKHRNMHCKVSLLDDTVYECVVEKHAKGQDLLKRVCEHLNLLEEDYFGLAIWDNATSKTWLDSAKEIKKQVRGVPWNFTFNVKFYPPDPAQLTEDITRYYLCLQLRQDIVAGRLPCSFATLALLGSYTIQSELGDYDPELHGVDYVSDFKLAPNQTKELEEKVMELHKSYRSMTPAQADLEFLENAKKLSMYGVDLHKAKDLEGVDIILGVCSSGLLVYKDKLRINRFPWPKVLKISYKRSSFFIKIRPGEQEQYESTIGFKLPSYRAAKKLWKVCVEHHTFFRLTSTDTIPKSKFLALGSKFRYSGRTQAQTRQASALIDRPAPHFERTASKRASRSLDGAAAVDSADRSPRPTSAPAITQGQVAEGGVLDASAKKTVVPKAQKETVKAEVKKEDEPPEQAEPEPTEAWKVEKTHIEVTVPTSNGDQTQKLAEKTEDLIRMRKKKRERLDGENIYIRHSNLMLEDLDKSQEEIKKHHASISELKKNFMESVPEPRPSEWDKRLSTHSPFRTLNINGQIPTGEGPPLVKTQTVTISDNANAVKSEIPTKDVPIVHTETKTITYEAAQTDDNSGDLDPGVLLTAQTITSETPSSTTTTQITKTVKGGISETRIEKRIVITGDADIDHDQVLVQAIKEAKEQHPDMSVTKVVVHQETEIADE
UniProt P55884, whole entry, looked up: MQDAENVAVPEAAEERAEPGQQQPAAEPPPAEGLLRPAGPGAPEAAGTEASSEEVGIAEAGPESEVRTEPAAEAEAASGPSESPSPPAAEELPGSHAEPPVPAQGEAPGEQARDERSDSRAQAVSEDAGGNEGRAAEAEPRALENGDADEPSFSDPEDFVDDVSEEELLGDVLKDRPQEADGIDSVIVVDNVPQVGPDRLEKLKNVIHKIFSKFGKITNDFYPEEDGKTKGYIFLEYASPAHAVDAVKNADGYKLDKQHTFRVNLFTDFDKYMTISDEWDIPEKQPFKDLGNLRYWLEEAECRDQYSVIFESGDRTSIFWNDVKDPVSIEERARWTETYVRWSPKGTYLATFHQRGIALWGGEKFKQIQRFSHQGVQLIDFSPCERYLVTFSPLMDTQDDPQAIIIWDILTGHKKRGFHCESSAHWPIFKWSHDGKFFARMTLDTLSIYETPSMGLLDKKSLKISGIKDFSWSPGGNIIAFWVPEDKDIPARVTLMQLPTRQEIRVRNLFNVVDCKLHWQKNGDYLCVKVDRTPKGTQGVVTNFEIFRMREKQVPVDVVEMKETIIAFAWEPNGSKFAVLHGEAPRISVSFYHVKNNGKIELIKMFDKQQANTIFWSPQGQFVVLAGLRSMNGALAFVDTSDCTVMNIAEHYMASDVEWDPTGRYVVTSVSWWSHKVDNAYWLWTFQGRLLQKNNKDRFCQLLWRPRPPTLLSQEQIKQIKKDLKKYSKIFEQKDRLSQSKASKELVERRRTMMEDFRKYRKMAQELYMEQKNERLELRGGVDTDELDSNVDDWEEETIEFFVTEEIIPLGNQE
UniProt P06733, whole entry, looked up: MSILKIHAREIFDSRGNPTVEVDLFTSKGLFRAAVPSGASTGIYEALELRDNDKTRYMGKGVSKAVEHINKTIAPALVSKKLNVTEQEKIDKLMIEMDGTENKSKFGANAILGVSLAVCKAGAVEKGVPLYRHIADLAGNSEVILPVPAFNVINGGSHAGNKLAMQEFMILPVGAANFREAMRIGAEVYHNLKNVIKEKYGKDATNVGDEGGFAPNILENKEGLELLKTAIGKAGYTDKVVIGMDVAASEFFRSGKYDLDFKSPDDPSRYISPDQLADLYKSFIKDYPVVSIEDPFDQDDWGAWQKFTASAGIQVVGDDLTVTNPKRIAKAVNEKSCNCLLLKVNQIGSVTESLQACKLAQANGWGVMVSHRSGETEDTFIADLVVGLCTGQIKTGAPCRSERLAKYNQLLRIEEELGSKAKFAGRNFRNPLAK
UniProt Q05BV3: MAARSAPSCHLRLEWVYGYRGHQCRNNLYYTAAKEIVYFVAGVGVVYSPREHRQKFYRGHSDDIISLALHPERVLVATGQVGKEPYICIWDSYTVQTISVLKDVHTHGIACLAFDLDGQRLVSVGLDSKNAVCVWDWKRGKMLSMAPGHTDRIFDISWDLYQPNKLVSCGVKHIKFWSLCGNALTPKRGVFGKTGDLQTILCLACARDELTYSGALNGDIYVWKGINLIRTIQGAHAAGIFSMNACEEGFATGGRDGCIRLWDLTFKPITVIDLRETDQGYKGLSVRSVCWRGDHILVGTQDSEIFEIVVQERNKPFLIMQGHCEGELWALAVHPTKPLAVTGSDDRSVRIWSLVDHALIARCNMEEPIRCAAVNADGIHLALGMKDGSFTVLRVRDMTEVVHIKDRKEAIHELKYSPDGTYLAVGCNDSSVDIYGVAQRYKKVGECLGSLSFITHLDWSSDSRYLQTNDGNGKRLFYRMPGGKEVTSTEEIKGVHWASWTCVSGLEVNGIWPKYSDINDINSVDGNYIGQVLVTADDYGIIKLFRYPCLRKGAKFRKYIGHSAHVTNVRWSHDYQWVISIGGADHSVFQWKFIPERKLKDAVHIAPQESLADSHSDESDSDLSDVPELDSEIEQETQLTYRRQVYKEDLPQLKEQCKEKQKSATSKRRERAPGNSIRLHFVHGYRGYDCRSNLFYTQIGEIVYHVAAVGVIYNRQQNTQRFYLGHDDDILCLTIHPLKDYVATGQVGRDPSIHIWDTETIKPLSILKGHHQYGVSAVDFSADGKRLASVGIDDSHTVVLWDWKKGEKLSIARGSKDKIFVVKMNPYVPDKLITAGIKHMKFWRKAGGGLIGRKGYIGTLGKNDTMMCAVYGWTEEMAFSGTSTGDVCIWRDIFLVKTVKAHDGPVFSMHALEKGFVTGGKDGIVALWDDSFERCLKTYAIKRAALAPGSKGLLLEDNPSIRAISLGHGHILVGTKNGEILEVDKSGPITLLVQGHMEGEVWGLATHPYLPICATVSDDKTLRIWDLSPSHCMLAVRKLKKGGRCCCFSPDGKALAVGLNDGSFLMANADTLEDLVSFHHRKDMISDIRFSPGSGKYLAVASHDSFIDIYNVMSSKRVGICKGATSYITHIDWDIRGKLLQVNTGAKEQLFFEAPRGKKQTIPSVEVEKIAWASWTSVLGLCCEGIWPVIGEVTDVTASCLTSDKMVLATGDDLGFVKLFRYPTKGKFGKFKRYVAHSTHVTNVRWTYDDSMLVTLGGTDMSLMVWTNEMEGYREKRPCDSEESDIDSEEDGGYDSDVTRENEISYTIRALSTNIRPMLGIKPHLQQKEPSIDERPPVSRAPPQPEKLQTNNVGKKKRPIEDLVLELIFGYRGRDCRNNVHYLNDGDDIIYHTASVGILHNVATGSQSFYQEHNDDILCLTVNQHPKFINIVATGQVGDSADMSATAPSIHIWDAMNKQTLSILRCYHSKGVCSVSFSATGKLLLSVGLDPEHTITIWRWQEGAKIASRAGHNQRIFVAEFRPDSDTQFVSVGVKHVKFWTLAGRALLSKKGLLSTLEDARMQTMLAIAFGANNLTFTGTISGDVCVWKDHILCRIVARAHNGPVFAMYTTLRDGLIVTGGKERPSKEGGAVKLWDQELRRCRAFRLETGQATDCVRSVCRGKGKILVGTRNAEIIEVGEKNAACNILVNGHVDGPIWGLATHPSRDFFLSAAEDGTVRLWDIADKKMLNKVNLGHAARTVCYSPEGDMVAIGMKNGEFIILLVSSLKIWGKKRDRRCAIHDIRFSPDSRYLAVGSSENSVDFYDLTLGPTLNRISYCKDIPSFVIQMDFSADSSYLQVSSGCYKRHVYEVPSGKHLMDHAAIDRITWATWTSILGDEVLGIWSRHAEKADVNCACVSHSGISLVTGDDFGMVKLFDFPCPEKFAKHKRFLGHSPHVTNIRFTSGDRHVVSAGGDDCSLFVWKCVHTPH
UniProt Q03468, whole entry, looked up: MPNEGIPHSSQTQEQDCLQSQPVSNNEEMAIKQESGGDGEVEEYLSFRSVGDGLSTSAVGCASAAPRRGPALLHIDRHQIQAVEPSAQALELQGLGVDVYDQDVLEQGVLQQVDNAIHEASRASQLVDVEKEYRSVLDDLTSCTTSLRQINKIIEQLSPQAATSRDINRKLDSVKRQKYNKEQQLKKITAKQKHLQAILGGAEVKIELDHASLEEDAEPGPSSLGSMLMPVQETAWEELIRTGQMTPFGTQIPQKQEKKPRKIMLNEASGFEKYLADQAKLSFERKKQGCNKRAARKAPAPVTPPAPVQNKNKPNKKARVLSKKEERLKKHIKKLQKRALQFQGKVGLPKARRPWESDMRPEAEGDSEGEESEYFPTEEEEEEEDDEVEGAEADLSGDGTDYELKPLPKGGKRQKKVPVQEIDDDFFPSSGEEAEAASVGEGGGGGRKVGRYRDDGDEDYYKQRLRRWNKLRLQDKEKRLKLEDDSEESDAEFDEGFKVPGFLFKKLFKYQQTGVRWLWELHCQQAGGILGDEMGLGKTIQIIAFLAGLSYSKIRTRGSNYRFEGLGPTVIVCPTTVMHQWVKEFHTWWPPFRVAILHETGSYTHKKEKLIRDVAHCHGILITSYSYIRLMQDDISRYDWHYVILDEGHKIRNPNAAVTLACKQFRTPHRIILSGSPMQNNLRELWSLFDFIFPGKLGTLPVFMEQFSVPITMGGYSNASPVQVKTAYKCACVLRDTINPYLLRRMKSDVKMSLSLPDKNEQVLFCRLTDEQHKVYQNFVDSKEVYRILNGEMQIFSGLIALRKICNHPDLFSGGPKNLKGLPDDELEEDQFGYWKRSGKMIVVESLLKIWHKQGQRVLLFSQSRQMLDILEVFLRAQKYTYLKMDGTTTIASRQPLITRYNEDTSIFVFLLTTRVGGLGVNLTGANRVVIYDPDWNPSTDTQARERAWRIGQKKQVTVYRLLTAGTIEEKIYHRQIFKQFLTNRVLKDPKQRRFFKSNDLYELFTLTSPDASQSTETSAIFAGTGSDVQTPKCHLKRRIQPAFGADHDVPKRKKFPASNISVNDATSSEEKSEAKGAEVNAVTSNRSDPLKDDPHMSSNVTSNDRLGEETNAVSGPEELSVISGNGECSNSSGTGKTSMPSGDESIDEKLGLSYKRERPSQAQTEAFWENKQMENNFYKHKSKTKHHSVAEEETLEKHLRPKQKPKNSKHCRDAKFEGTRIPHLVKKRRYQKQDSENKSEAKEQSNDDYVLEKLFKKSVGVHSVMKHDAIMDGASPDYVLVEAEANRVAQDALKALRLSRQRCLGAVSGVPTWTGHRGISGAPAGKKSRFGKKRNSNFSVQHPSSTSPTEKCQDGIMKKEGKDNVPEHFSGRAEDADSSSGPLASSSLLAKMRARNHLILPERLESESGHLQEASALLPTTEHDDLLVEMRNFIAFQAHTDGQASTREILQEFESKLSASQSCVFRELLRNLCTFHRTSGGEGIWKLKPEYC
UniProt Q92979: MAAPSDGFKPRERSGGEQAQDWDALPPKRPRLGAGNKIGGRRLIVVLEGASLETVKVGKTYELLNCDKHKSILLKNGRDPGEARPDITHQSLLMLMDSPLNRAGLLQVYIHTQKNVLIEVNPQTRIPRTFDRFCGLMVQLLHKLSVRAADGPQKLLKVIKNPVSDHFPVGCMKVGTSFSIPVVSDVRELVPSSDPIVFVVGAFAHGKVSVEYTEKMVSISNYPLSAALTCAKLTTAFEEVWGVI
UniProt Q9Y6I3: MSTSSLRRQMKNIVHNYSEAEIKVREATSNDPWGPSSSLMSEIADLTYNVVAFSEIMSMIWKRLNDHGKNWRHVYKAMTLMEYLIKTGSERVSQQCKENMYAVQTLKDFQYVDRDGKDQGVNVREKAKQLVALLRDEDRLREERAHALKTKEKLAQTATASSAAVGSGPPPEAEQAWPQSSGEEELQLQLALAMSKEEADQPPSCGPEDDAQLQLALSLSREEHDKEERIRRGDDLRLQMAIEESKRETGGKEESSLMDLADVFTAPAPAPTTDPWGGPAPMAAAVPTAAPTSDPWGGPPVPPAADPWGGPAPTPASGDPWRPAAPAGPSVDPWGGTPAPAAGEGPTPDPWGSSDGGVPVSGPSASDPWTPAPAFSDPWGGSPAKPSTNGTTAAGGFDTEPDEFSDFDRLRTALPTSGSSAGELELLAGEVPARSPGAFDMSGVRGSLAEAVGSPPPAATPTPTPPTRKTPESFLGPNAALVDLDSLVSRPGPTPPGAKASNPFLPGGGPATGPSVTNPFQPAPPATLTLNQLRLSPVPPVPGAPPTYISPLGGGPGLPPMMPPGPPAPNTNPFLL

Legend:
Test in all cases: log2 fold change, soluble protein after heating vs DMSO (PISA); higher = thermal stabilisation; K562 lysate, 10 uM; active = over 0.2 and 3.5 SD of the protein, either way, in both replicates (recomputed)
alvocidib = compound: CN1CC[C@H](c2c(O)cc(O)c3c(=O)cc(-c4ccccc4Cl)oc23)[C@H](O)C1 [alvocidib]
Summary of the method: (§1)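 Following dounce homogenisation of K562 pellets in PBS pH 7.4 with 1 mM MgCl2, crude extract at 1 mg/mL protein was incubated for 30 min with 10 μM compound. Aliquots were then heated for 3 min over 48°C-58°C and pooled, NP-40 was added to 0.5% at 4°C, and soluble protein was recovered as the supernatant at 21,000xg for 90 min. Channel-sum-equalised TMTpro 16plex LC-MS/MS quantified this protein. Each value, from duplicates, is a log-two fold change in thermal stability relative to solvent controls.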

Tubastatin A = compound: CN1CCc2c(c3ccccc3n2Cc2ccc(C(=O)NO)cc2)C1 [Tubastatin A]
Summary of the method: as §1

[1] = compound: CNC(=O)C1=CC=CC=C1NC2=NC(=NC=C2Cl)NC3=C(C=C(C=C3)N4CCOCC4)OC
Summary of the method: as §1

alisertib = compound: COc1cc(Nc2ncc3c(n2)-c2ccc(Cl)cc2C(c2c(F)cccc2OC)=NC3)ccc1C(=O)O [alisertib]
Summary of the method: as §1

[2] = compound: COc1cc2nc(-c3cc(F)ccc3O)nc(N[C@@H]3CNC[C@H]3C(C)(C)O)c2cc1OC
Summary of the method: as §1

gefitinib = compound: COc1cc2ncnc(Nc3ccc(F)c(Cl)c3)c2cc1OCCCN1CCOCC1 [gefitinib]
Summary of the method: as §1

lapatinib = compound: CS(=O)(=O)CCNCc1ccc(-c2ccc3ncnc(Nc4ccc(OCc5cccc(F)c5)c(Cl)c4)c3c2)o1 [lapatinib]
Summary of the method: as §1

crizotinib = compound: C[C@@H](Oc1cc(-c2cnn(C3CCNCC3)c2)cnc1N)c1c(Cl)ccc(F)c1Cl [crizotinib]
Summary of the method: as §1

[3] = compound: C[C@H](C1=CC=C(C=C1)C(=O)NC2=C3C=CNC3=NC=C2)N
Summary of the method: as §1

gandotinib = compound: Cc1cc(Nc2cc(CN3CCOCC3)c3nc(C)c(Cc4ccc(Cl)cc4F)n3n2)n[nH]1 [gandotinib]
Summary of the method: as §1

doramapimod = compound: Cc1ccc(-n2nc(C(C)(C)C)cc2NC(=O)Nc2ccc(OCCN3CCOCC3)c3ccccc23)cc1 [doramapimod]
Summary of the method: as §1

[4] = compound: Cc1cccc(CC(=O)N2CCc3c2ccc(-c2cn(C)c4ncnc(N)c24)c3F)n1
Summary of the method: as §1

defactinib = compound: CNC(=O)c1ccc(Nc2ncc(C(F)(F)F)c(NCc3nccnc3N(C)S(C)(=O)=O)n2)cc1 [defactinib]
Summary of the method: as §1

[5] = compound: CNc1nc(-c2ccc3c(N)n[nH]c3c2)cc(N2C[C@@H](C(=O)NC3CCCCC3)CC[C@H]2C)n1
Summary of the method: as §1

encorafenib = compound: COC(=O)N[C@@H](C)CNc1nccc(-c2cn(C(C)C)nc2-c2cc(Cl)cc(NS(C)(=O)=O)c2F)n1 [encorafenib]
Summary of the method: as §1

[6] = compound: COC(=O)[C@H](CCSC)NC(=O)C1=C(C=C(C=C1)NC[C@H](CS)N)C2=CC=CC=C2
Summary of the method: as §1

pictilisib = compound: CS(=O)(=O)N1CCN(Cc2cc3nc(-c4cccc5[nH]ncc45)nc(N4CCOCC4)c3s2)CC1 [pictilisib]
Summary of the method: as §1

duvelisib = compound: C[C@H](Nc1ncnc2nc[nH]c12)c1cc2cccc(Cl)c2c(=O)n1-c1ccccc1 [duvelisib]
Summary of the method: as §1

tozasertib = compound: Cc1cc(Nc2cc(N3CCN(C)CC3)nc(Sc3ccc(NC(=O)C4CC4)cc3)n2)n[nH]1 [tozasertib]
Summary of the method: as §1

bafetinib = compound: Cc1ccc(NC(=O)c2ccc(CN3CC[C@H](N(C)C)C3)c(C(F)(F)F)c2)cc1Nc1nccc(-c2cncnc2)n1 [bafetinib]
Summary of the method: as §1

Measured: log2 fold change

EPB41 isoform 4 (UniProt P11171)
inactive: alvocidib -0.014 | Tubastatin A 0.012 | [1] -0.089 | alisertib -0.09 | [2] -0.153 | gefitinib -0.096 | lapatinib 0.014 | crizotinib -0.038 | [3] 0.012 | gandotinib -0.004 | doramapimod 0.046 | [4] -0.024

EIF3B isoform 2 (UniProt P55884)
inactive: alvocidib 0 | Tubastatin A -0.013 | [1] 0.01 | defactinib -0.008 | [5] -0.03 | encorafenib -0.002 | [6] 0.054 | alisertib -0.013 | [2] -0.006 | gefitinib -0.006 | lapatinib -0.019 | pictilisib 0.006 | crizotinib -0.03 | [3] 0.02 | duvelisib 0.004 | gandotinib -0.035 | tozasertib -0.002 | doramapimod 0.029 | bafetinib 0.008 | [4] -0.018

ENO1 isoform 2 (UniProt P06733)
inactive: alvocidib -0.174 | Tubastatin A 0.085 | [1] -0.13 | defactinib -0.001 | [5] 0.009 | encorafenib 0.033 | [6] -0.033 | alisertib 0.022 | [2] -0.004 | gefitinib -0.015 | lapatinib 0.005 | pictilisib -0.012 | crizotinib -0.019 | duvelisib 0.049 | gandotinib 0.153 | tozasertib 0.026 | doramapimod -0.019 | bafetinib 0.07 | [4] 0.222
active: [3] -0.285

ELMO2 (UniProt Q96JJ3)
inactive: alvocidib -0.149 | Tubastatin A -0.106 | [1] -0.029 | defactinib -0.018 | [5] 0.059 | alisertib 0.043 | [2] -0.133 | gefitinib 0.035 | lapatinib 0.008 | crizotinib -0.197 | [3] -0.034 | duvelisib -0.05 | gandotinib 0.007 | doramapimod -0.072 | [4] 0.214

EIF3B (UniProt C9JQN7)
inactive: alvocidib -0.039 | Tubastatin A 0.082 | [1] 0.077 | alisertib -0.108 | [2] 0.005 | gefitinib -0.038 | lapatinib -0.064 | pictilisib -0.086 | crizotinib -0.073 | [3] -0.015 | gandotinib 0.159 | doramapimod -0.037 | bafetinib 0.002 | [4] 0.149

EPHB6 (UniProt O15197)
inactive: alvocidib -0.017 | Tubastatin A -0.185 | defactinib 0.067 | encorafenib 0.064 | [6] 0.03 | alisertib -0.059 | gefitinib -0.038 | [3] 0.139 | gandotinib -0.206 | tozasertib -0.034 | [4] -0.02

EML4 (UniProt Q9HC35)
inactive: alvocidib -0.021 | Tubastatin A -0.028 | [1] 0.028 | defactinib -0.018 | [5] -0.011 | encorafenib 0.011 | [6] 0.062 | alisertib 0 | [2] -0.007 | gefitinib -0.018 | lapatinib 0 | pictilisib 0.001 | [3] -0.065 | duvelisib 0.017 | gandotinib 0.037 | tozasertib -0.033 | doramapimod 0.011 | bafetinib -0.03 | [4] 0.025

EPB41 (UniProt P11171)
inactive: alvocidib 0.044 | Tubastatin A -0.02 | [1] 0.011 | defactinib 0.015 | [5] -0.067 | encorafenib 0.01 | [6] -0.001 | alisertib 0.02 | [2] -0.036 | gefitinib 0.007 | lapatinib -0.009 | pictilisib -0.015 | crizotinib -0.007 | [3] 0.04 | duvelisib -0.016 | gandotinib -0.105 | tozasertib 0.035 | doramapimod 0.01 | bafetinib -0.013 | [4] -0.088

EML5 isoform 5 (UniProt Q05BV3)
inactive: alvocidib -0.091 | Tubastatin A -0.108 | [1] -0.079 | [5] -0.12 | alisertib -0.046 | [2] 0.043 | gefitinib 0.066 | lapatinib -0.032 | crizotinib -0.062 | [3] -0.098 | duvelisib -0.003 | gandotinib 0.065 | doramapimod -0.025 | [4] 0.059

EML2 isoform 3 (UniProt O95834)
inactive: alvocidib 0.044 | Tubastatin A -0.019 | [1] -0.001 | defactinib -0.02 | [5] -0.077 | encorafenib 0.013 | [6] 0.006 | alisertib -0.026 | [2] -0.037 | gefitinib 0 | lapatinib -0.017 | pictilisib -0.027 | crizotinib 0.023 | [3] 0.098 | duvelisib 0.007 | gandotinib -0.079 | tozasertib 0.01 | doramapimod 0.006 | bafetinib -0.032 | [4] -0.066

ERCC6 (UniProt Q03468)
inactive: alvocidib -0.09 | Tubastatin A 0.031 | [1] -0.017 | defactinib -0.04 | [5] 0.134 | encorafenib -0.111 | [6] -0.064 | alisertib -0.178 | [2] -0.006 | gefitinib 0.246 | lapatinib 0.004 | pictilisib -0.107 | [3] 0.091 | duvelisib -0.392 | gandotinib 0.009 | tozasertib 0.124 | bafetinib 0.029 | [4] -0.028

EMG1 (UniProt Q92979)
inactive: alvocidib -0.019 | Tubastatin A -0.036 | [1] 0 | defactinib -0.02 | [5] -0.011 | encorafenib -0.026 | [6] 0.042 | alisertib 0.001 | [2] -0.006 | gefitinib -0.017 | lapatinib -0.007 | pictilisib 0.004 | crizotinib -0.063 | [3] -0.044 | duvelisib 0.029 | gandotinib 0.026 | tozasertib -0.031 | doramapimod 0.027 | bafetinib -0.035 | [4] 0.014

3 successive records from above, for reference:
ENO1 isoform 2 (UniProt P06733)
inactive: alvocidib -0.174 | Tubastatin A 0.085 | [1] -0.13 | defactinib -0.001 | [5] 0.009 | encorafenib 0.033 | [6] -0.033 | alisertib 0.022 | [2] -0.004 | gefitinib -0.015 | lapatinib 0.005 | pictilisib -0.012 | crizotinib -0.019 | duvelisib 0.049 | gandotinib 0.153 | tozasertib 0.026 | doramapimod -0.019 | bafetinib 0.07 | [4] 0.222
active: [3] -0.285

ELMO2 (UniProt Q96JJ3)
inactive: alvocidib -0.149 | Tubastatin A -0.106 | [1] -0.029 | defactinib -0.018 | [5] 0.059 | alisertib 0.043 | [2] -0.133 | gefitinib 0.035 | lapatinib 0.008 | crizotinib -0.197 | [3] -0.034 | duvelisib -0.05 | gandotinib 0.007 | doramapimod -0.072 | [4] 0.214

EIF3B (UniProt C9JQN7)
inactive: alvocidib -0.039 | Tubastatin A 0.082 | [1] 0.077 | alisertib -0.108 | [2] 0.005 | gefitinib -0.038 | lapatinib -0.064 | pictilisib -0.086 | crizotinib -0.073 | [3] -0.015 | gandotinib 0.159 | doramapimod -0.037 | bafetinib 0.002 | [4] 0.149

(further entries)

EPN1 isoform 3 (UniProt Q9Y6I3)
inactive: alvocidib -0.029 | Tubastatin A 0.137 | [1] -0.264 | [5] -0.003 | alisertib -0.214 | [2] 0.079 | gefitinib 0.004 | lapatinib 0.004 | crizotinib -0.006 | [3] -0.065 | duvelisib -0.093 | gandotinib 0.163 | doramapimod -0.047 | [4] -0.029
